Experimental data taken from patent CN111378040A.
Residue numbers refer to the chain shown, from its start. These are yes or no findings as the source states them, for the method shown. Some binding calls cover weakened binding; strength is not graded here.

The chains behind the UniProt entries cited, without tags or fusion partners. Where a name states a change or a piece, a line headed by the entry shows the natural chain unless it says otherwise. A line that says so, or that is headed by a name, gives the form on record, which may keep a tag or linker. Residues count along the entry.
ROR2胞外段蛋白 (Q01974, residues 34-403): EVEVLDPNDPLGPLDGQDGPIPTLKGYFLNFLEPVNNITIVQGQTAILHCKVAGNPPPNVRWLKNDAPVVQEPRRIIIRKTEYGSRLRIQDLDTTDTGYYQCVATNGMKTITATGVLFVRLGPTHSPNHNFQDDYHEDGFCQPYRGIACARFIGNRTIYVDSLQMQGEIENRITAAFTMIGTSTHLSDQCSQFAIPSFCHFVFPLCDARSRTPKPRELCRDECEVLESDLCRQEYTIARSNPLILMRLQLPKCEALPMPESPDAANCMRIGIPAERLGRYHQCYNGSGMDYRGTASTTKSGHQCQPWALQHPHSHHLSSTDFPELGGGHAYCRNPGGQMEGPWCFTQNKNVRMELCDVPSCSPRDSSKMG
ROR2-Flag (Q01974, form named): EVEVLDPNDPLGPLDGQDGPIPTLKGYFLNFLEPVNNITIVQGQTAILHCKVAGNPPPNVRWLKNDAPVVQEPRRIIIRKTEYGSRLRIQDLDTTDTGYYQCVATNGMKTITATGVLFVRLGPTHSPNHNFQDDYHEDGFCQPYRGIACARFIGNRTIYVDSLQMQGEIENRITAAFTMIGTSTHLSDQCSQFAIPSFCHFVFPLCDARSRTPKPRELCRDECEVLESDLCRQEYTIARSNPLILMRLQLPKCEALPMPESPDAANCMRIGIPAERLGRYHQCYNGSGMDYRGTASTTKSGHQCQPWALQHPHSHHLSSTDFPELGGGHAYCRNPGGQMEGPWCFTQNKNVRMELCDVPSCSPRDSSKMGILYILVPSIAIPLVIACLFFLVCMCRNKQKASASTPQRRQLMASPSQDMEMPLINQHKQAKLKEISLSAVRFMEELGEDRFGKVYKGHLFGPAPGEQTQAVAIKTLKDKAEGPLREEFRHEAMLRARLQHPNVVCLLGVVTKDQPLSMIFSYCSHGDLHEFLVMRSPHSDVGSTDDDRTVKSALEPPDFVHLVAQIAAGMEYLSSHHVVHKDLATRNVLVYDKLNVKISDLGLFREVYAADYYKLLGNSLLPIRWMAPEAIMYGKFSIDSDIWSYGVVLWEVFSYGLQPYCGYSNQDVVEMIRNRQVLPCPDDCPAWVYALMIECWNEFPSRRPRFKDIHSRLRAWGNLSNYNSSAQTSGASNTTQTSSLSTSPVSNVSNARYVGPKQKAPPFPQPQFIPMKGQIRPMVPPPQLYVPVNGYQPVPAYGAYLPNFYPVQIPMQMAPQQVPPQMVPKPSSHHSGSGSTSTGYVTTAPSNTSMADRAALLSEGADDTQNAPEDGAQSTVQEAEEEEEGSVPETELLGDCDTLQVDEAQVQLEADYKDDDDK

B1: B30嵌合抗体 (antibody, human IgG1, kappa, V domains shown)
VH: QVQLQQSGPELVKPGASVRMSCKAAGYTFTSYLIHWVKQRPGQDLEWIGYINPYNDGTKYNEKFKDKATLTSDKSSSTAYMELSSLTSEDSAVYYCARSDVYYGVRFAYWGQGTLVTVSA
VL: DIVLTQSPVIMSASPGEKVTMTCSASSSISYMYWYQQKPGSSPRLLIYDTSILASGVPVRFSGSGSGTSYSLTISRMEAEDAATYYCQQWSSYPFTFGSGTKLEIKR
B2: B22嵌合抗体 (antibody, human IgG1, kappa, V domains shown)
VH: QVQLQQPGAALVKPGASVKLSCKASGYTFTNYWIQWMKQRPGQGLEWIGEINPSNGRTDYNEKFKNRATLTVDNSSTTAYMQLSSLTSEDSAVYYCANYRPGYWGQGTSVTVSS
VL: DIVMTQSQKFMSTSVGDRVSVTCKASQNVGTNVAWFQQKPGQSPKPLIYLASYRYSGVPDRFTGSGSGTDFTLTISNVQSEDLAEYFCQQYNSYPLTFGGGTNLEIKR
B3: A12嵌合抗体 (antibody, human IgG1, kappa, V domains shown)
VH: B1 VH with F29I, I34M
VL: DIVLTQSPAIMSASPGEKVTMTCSASSSVSYMHWYQQKSGTSPKRWIYDTSKLASGVPARFSGSGSGTSYSLTISSMEAEDAAIYYCQQWSSNPPTFGAGTKLELKR

Molecular target: ROR2-Flag (UniProt Q01974)
Assay: immunoprecipitation and immunoblot, 293T cells transfected with pcDNA-ROR2-Flag

**Q.** With B1 as the binder, how does the binding read?
**A.** The binding was “binds”.

**Q.** B2 was tested. Which binding did it give?
**A.** Its binding is “binds”.

**Q.** B3 was tested. Which binding did it give?
**A.** Its binding is “binds”.

Molecular target: ROR2胞外段蛋白 (UniProt Q01974)
Assay: ELISA, ROR2 extracellular segment protein coated on plate, OD450

**Q.** With B1 as the binder, how does the binding read?
**A.** The binding was “binds”.

**Q.** With B2 as the binder, how does the binding read?
**A.** The binding was “binds”.

**Q.** How did the binding turn out when B3 was run?
**A.** Its binding is “binds”.
